Assay results: the supplement of paper PMC11732987, “Enantioselective OTUD7B fragment discovery through chemoproteomics screening and high-throughput optimisation” (Communications Chemistry, 2025)
The other results are listed elsewhere or left out. The data scatter; read single values as rough.

Chains of the proteins cited; added tags and fusions are not shown. Lines headed by an entry give the natural chain unless they say otherwise; changes in a name come on top.
UniProt Q9NWH9: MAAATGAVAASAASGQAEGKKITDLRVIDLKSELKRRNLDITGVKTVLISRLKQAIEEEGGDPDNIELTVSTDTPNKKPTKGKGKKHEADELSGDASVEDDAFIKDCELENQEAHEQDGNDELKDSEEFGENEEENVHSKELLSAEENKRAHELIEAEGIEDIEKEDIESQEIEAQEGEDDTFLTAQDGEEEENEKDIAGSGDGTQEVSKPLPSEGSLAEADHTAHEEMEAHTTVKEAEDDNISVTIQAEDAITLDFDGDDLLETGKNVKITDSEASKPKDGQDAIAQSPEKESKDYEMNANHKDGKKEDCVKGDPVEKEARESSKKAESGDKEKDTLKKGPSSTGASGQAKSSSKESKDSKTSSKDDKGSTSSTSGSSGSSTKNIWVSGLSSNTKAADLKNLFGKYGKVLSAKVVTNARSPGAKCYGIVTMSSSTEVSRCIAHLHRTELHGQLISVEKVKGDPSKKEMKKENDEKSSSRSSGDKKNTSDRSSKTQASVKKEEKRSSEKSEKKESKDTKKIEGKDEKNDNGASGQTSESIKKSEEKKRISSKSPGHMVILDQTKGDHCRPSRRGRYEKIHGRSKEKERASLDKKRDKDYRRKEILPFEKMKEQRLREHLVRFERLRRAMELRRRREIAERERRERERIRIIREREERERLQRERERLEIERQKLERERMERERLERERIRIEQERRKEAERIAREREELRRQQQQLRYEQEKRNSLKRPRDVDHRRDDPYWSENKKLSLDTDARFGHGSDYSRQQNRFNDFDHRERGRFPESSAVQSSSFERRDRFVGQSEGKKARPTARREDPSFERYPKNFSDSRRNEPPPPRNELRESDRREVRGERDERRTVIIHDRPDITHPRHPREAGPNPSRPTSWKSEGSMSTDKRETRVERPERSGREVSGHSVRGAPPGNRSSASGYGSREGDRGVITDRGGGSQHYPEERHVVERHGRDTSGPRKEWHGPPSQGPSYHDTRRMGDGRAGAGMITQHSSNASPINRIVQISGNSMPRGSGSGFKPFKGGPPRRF

Target: SLTM C311 (UniProt Q9NWH9)
Assay: log2 mean competition ratio of IA-DTB cysteine labelling (DMSO/compound) (log2 ratio); higher = stronger cysteine engagement by compound
Conditions: 50 µM; treatment time: 4 h; cell line lysate: HEK293T
Method: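 IA-DTB competitive cysteine chemoproteomics in HEK293T RIPA lysate. Lysates were treated with compound 29 or 30 at 50 or 200 µM for 4 h, then IA-DTB (500 µM, 1 h), trypsin-digested, NeutrAvidin-enriched and analysed by diaPASEF. Competition ratio = intensity DMSO / intensity compound (n=4 treated, n=64 DMSO); binding: mean log2 CR ≥ 1 and p ≤ 0.05 plus QC filters. Target is the cysteine site.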

SMILES	log2 mean competition ratio
O=C(CCl)N[C@@H]1CCCc2ccccc21	-0.141
O=C(CCl)N[C@H]1CCCc2ccccc21	-0.124

Same assay, conditions: 200 µM; treatment time: 4 h; cell line lysate: HEK293T

SMILES	log2 mean competition ratio
O=C(CCl)N[C@@H]1CCCc2ccccc21	0.29
O=C(CCl)N[C@H]1CCCc2ccccc21	-0.0871
